Assay: Weight gain in Zucker obese (fa/fa) rats
Assay type: in vivo, rat
Conditions: week 32, 2 g PM/L in drinking water

Cc1ncc(CO)c(CN)c1O [PM, Pyridoxamine]
Body weight: 746 ± 60 g

— patent US20020128295A1, “Use of pyridoxamine for the treatment and inhibition of obesity-related complications” (priority 2000, published 2002)
